{"sequences": {"note": "By UniProt entry, the sequences of proteins in these tests, tags left out. Where a name states a change or a piece, a line headed by the entry shows the natural chain unless it says otherwise.", "UniProt Q96EP0": "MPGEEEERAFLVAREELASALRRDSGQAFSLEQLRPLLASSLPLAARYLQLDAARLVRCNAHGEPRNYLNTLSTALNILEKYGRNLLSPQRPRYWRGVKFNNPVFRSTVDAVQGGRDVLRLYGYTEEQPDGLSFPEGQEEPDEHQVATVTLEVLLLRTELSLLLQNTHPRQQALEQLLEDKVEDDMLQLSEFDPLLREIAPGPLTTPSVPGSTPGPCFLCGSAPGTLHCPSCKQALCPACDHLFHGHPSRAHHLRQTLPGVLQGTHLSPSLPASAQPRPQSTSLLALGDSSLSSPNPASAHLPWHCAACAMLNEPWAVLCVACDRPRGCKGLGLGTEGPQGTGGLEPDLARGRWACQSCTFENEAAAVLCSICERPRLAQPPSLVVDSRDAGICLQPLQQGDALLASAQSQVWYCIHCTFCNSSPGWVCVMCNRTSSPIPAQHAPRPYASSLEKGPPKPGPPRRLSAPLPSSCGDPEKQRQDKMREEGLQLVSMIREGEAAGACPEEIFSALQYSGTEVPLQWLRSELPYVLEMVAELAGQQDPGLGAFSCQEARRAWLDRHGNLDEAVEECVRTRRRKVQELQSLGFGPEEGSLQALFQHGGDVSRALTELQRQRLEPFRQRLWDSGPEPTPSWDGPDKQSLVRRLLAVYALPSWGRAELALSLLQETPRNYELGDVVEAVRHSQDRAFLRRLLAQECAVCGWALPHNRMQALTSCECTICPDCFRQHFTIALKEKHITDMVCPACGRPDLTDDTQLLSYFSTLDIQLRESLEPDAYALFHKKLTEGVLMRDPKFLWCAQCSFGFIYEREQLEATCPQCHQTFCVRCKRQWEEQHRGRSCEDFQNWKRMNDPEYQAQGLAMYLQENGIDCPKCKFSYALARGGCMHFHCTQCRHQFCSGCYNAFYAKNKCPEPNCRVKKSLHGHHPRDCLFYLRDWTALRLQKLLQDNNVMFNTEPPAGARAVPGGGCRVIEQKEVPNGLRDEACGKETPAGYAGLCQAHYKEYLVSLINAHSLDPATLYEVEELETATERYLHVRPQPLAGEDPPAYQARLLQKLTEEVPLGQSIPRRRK", "UniProt Q96BN8": "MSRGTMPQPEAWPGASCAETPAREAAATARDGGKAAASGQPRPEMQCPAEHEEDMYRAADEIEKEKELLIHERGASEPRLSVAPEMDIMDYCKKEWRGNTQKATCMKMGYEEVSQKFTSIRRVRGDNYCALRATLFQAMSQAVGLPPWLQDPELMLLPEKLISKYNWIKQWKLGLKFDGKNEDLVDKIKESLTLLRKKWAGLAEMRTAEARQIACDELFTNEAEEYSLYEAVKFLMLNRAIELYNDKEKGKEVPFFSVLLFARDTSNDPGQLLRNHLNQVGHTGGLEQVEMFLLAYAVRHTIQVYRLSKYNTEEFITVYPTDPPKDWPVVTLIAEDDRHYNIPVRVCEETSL", "UniProt Q9Y572": "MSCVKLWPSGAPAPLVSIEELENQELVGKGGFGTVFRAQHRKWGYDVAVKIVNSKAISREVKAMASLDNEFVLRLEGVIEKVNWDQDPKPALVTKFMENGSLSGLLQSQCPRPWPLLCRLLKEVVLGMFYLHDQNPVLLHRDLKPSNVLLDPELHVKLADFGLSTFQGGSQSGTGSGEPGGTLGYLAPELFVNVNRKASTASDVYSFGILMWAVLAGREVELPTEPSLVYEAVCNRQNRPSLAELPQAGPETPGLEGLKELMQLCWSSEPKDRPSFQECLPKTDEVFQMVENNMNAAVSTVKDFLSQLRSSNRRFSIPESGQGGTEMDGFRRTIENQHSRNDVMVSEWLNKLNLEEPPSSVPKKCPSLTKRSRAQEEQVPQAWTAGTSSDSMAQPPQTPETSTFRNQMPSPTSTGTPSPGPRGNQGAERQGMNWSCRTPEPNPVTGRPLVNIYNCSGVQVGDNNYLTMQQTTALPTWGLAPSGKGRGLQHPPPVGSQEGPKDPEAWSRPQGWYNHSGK", "UniProt Q14790": "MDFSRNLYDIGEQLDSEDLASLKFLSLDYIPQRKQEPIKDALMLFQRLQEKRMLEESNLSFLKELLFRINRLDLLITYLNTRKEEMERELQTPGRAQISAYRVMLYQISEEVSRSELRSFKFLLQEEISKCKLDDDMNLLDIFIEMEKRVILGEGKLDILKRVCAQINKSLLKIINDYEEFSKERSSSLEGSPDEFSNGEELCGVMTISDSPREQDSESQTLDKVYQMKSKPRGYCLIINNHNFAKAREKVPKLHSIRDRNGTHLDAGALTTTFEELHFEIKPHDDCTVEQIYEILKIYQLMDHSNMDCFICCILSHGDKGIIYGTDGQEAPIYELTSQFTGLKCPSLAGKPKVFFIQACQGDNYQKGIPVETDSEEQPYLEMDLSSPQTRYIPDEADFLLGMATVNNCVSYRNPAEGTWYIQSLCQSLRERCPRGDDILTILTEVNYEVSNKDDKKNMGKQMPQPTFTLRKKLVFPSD"}, "source": "paper PMC9724671", "molecules": {"B1": {"name": "RIPK1, Q13546 1-671 (protein)", "chain": "MQPDMSLNVIKMKSSDFLESAELDSGGFGKVSLCFHRTQGLMIMKTVYKGPNCIEHNEALLEEAKMMNRLRHSRVVKLLGVIIEEGKYSLVMEYMEKGNLMHVLKAEMSTPLSVKGRIILEIIEGMCYLHGKGVIHKDLKPENILVDNDFHIKIADLGLASFKMWSKLNNEEHNELREVDGTAKKNGGTLYYMAPEHLNDVNAKPTEKSDVYSFAVVLWAIFANKEPYENAICEQQLIMCIKSGNRPDVDDITEYCPREIISLMKLCWEANPEARPTFPGIEEKFRPFYLSQLEESVEEDVKSLKKEYSNENAVVKRMQSLQLDCVAVPSSRSNSATEQPGSLHSSQGLGMGPVEESWFAPSLEHPQEENEPSLQSKLQDEANYHLYGSRMDRQTKQQPRQNVAYNREEERRRRVSHDPFAQQRPYENFQNTEGKGTAYSSAASHGNAVHQPSGLTSQPQVLYQNNGLYSSHGFGTRPLDPGTAGPRVWYRPIPSHMPSLHNIPVPETNYLGNTPTMPFSSLPPTDESIKYTIYNSTGIQIGAYNYMEIGGTSSSLLDSTNTNFKEEPAAKYQAIFDNTTSLTDKHLDPIRENLGKHWKNCARKLGFTQSQIDEIDHDYERDGLKEKVYQMLQKWVMREGIKGATVGKLAQALHQCSRIDLLSSLIYVSQN"}, "B2": {"name": "TAK1 (enzyme, UniProt O43318 1-606)", "chain": "MSTASAASSSSSSSAGEMIEAPSQVLNFEEIDYKEIEVEEVVGRGAFGVVCKAKWRAKDVAIKQIESESERKAFIVELRQLSRVNHPNIVKLYGACLNPVCLVMEYAEGGSLYNVLHGAEPLPYYTAAHAMSWCLQCSQGVAYLHSMQPKALIHRDLKPPNLLLVAGGTVLKICDFGTACDIQTHMTNNKGSAAWMAPEVFEGSNYSEKCDVFSWGIILWEVITRRKPFDEIGGPAFRIMWAVHNGTRPPLIKNLPKPIESLMTRCWSKDPSQRPSMEEIVKIMTHLMRYFPGADEPLQYPCQYSDEGQSNSATSTGSFMDIASTNTSNKSDTNMEQVPATNDTIKRLESKLLKNQAKQQSESGRLSLGASRGSSVESLPPTSEGKRMSADMSEIEARIAATTAYSKPKRGHRKTASFGNILDVPEIVISGNGQPRRRSIQDLTVTGTEPGQVSSRSSSPSVRMITTSGPTSEKPTRSHPWTPDDSTDTNGSDNSIPMAYLTLDHQLQPLAPCPNSKESMAVFEQHCKMAQEYMKVQTEIALLLQRKQELVAELDQDEKDQQNTSRLVQEHKKLLDENKSLSTYYQQCKKQLEVIRSQQQKRQGTS"}, "B3": {"name": "IKKβ (enzyme, UniProt O14920 1-756)", "chain": "MSWSPSLTTQTCGAWEMKERLGTGGFGNVIRWHNQETGEQIAIKQCRQELSPRNRERWCLEIQIMRRLTHPNVVAARDVPEGMQNLAPNDLPLLAMEYCQGGDLRKYLNQFENCCGLREGAILTLLSDIASALRYLHENRIIHRDLKPENIVLQQGEQRLIHKIIDLGYAKELDQGSLCTSFVGTLQYLAPELLEQQKYTVTVDYWSFGTLAFECITGFRPFLPNWQPVQWHSKVRQKSEVDIVVSEDLNGTVKFSSSLPYPNNLNSVLAERLEKWLQLMLMWHPRQRGTDPTYGPNGCFKALDDILNLKLVHILNMVTGTIHTYPVTEDESLQSLKARIQQDTGIPEEDQELLQEAGLALIPDKPATQCISDGKLNEGHTLDMDLVFLFDNSKITYETQISPRPQPESVSCILQEPKRNLAFFQLRKVWGQVWHSIQTLKEDCNRLQQGQRAAMMNLLRNNSCLSKMKNSMASMSQQLKAKLDFFKTSIQIDLEKYSEQTEFGITSDKLLLAWREMEQAVELCGRENEVKLLVERMMALQTDIVDLQRSPMGRKQGGTLDDLEEQARELYRRLREKPRDQRTEGDSQEMVRLLLQAIQSFEKKVRVIYTQLSKTVVCKQKALELLPKVEEVVSLMNEDEKTVVRLQEKRQKELWNLLKIACSKVRGPVSGSPDSMNASRLSQPGQLMSQPSTASNSLPEPAKKSEELVAEAHNLCTLLENAIQDTVREQDQSFTALDWSWLQTEEEEHSCLEQAS"}}, "key": {"[1]": {"molecular_target": "T1, FLAG‐tagged wild‐type (WT) human ZBP1 (Z‐DNA‐binding protein 1) (human) (UniProt Q9H171)", "T1 sequence": "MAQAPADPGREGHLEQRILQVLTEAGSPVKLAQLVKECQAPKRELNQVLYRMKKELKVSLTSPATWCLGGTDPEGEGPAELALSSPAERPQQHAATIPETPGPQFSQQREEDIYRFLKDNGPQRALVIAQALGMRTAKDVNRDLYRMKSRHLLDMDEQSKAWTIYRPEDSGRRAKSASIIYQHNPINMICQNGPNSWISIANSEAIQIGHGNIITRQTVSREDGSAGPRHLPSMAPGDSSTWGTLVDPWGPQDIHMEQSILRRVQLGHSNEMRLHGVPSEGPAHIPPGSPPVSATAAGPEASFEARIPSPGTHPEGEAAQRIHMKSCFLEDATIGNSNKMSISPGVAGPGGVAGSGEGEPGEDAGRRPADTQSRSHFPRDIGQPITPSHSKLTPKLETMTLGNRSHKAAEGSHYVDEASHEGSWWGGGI", "assay": "co-IP; anti‐FLAG M2 agarose beads on lysates of HT29/TO‐ZBP1^WT cells (and HT29/RIPK1‐KO clone aA3/TO‐ZBP1^WT cells) treated with 500 ng/ml Dox for 16 h; TBSN buffer (50 mM Tris–HCl pH 7.5, 150 mM NaCl, 0.5% NP‐40) with protease and phosphatase inhibitors and 50 mM NEM, 4°C; co‐precipitated endogenous proteins detected by Western blot"}, "[2]": {"molecular_target": "T2, FLAG‐tagged wild‐type (WT) human ZBP1 (Z‐DNA‐binding protein 1) (human), Q9H171", "T2 chain": "T1 sequence", "assay": "co-IP; anti‐FLAG M2 agarose beads on lysates of HT29/TO‐ZBP1^WT cells (and HT29/RIPK1‐KO clone aA3/TO‐ZBP1^WT cells) treated with 500 ng/ml Dox for 16 h; TBSN buffer (50 mM Tris–HCl pH 7.5, 150 mM NaCl, 0.5% NP‐40) with protease and phosphatase inhibitors and 50 mM NEM, 4°C; co‐precipitated endogenous proteins detected by Western blot", "conditions": "remark: other sources report otherwise"}}, "note": "Results are given in words; binding and its absence hold for the method and conditions named. Binding seen in cells or lysates may run through a third protein. Some entries that bind do so weakly or less than the wild type. Where a sequence is shown, tags or fusion partners need not be part of it."}
{"molecule": "LUBAC (HOIP, HOIL‐1, SHARPIN) (from UniProt Q96EP0 1-1072; Q9BYM8 1-510; Q9H0F6 1-387) (complex)", "values": [{"measurement": "binding", "setting": "[1]", "result": "binds"}]}
{"molecule": "OTULIN (from UniProt Q96BN8 1-352) (enzyme)", "values": [{"measurement": "binding", "setting": "[1]", "result": "binds"}]}
{"molecule": "RIPK3 (from UniProt Q9Y572 1-518)", "values": [{"measurement": "binding", "setting": "[1]", "result": "binds"}]}
{"molecule": "full‐length caspase‐8 (from UniProt Q14790 1-479)", "values": [{"measurement": "binding", "setting": "[1]", "result": "binds"}]}
{"molecule": "phosphorylated RIPK3 (from UniProt Q9Y572 1-518)", "values": [{"measurement": "binding", "setting": "[1]", "result": "binds"}]}
{"molecule": "B1", "values": [{"measurement": "binding", "setting": "[2]", "result": "binds"}]}
{"molecule": "B2", "values": [{"measurement": "binding", "setting": "[1]", "result": "binds"}]}
{"molecule": "B3", "values": [{"measurement": "binding", "setting": "[1]", "result": "binds"}]}
